These are yes or no findings as the source states them, for the method shown. In cells and extracts the contact can be indirect. A result given as binding can be weak or reduced; the word gives no strength. Where a sequence is shown, tags or fusion partners need not be part of it.
Target: Pi65-HA (rice (Oryza sativa ssp. japonica cv. GY129))
Test: co-IP

B1: OsAPx4-GFP (enzyme, UniProt Q6ZJJ1 1-291)
chain: MAAPVVDAEYLRQVDRARRHLRALISSKGCAPIMLRLAWHDAGTYDVNTKTGGANGSIRYEEEYTHGSNAGLKIAIDLLEPIKAKSPKITYADLYQLAGVVAVEVTGGPTVEFIPGRRDSSVCPREGRLPDAKKGALHLRDIFYRMGLSDKDIVALSGGHTLGRAHPERSGFEGAWTQEPLKFDNSYFLELLKGESEGLLKLPTDKALLEDPSFRRYVDLYARDEDTFFKDYAESHKKLSELGFTPRSSGPASTKSDLSTGAVLAQSAVGVAVAAAVVIVSYLYEASKKSK
binding: binds

— article PMC12812394
